Experimental data reported in patent US20070110748A1.
No constants are given. Whether binding was seen depends on the method and setting. Some results given as binding are weak or reduced against the parent protein; the word gives no strength.

By UniProt entry, the sequences of proteins in these tests, tags left out. Residues count along the entry.
UniProt P02751, residues 32-290: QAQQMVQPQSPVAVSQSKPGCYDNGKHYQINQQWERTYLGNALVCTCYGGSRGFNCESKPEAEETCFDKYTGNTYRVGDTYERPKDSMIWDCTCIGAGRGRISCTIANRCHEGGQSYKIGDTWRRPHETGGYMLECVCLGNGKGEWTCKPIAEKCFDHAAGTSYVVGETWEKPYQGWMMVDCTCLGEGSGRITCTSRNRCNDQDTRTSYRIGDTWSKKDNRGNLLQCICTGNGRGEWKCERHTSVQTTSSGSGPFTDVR

Molecular target: T1, Fn-binding MSCRAMM on S. aureus strain Cowan cells (Staphylococcus aureus) (UniProt P14738)
T1 sequence: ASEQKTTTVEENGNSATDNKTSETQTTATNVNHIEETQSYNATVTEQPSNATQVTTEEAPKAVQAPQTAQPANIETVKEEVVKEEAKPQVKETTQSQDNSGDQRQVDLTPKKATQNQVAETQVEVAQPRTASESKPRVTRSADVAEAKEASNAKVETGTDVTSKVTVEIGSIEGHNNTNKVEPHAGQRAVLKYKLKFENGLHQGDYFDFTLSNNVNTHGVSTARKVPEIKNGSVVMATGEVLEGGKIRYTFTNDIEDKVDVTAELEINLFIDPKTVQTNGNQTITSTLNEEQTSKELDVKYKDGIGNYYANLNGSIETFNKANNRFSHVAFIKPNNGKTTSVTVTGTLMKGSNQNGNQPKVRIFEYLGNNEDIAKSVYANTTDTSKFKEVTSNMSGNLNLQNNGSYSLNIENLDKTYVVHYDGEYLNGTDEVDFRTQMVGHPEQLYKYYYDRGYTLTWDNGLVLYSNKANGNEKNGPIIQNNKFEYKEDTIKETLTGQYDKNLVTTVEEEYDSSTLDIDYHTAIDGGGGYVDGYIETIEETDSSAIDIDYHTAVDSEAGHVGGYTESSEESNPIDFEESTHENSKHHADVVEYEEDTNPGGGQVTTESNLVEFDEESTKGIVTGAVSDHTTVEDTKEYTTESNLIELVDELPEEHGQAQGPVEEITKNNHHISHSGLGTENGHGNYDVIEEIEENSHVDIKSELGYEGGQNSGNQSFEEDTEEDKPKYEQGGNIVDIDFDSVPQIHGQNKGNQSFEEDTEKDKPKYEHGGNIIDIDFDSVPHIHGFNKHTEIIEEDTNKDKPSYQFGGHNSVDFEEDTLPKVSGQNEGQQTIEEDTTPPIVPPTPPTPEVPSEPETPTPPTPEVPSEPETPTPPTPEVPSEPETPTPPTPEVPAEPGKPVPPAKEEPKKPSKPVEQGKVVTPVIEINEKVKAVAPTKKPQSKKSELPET
Assay: 125I-N29 incubated with S. aureus Cowan 1 cells; patient IgG did not inhibit

N-terminal Fn fragment (N29) (from UniProt P02751 32-290) (ligand)
binding: binds
